Consider one compound from article PMC4980028, “Discovery of a Series of Acridinones as Mechanism-Based Tubulin Assembly Inhibitors with Anticancer Activity” (PLoS ONE, 2016).

The test relates to MDA-MB-231 cells. The test is described as follows: Boyden chamber (transwell) migration assay. Particulars: MDA-MB-231, transwell, 6 h; read-out: IC50 Cell migration. Format: cell-based, human. Here is the method:
Transwells containing 0.3 cm^2 inserts with 8.0 μm pore polyethylene terephthalate membranes (Corning Falcon^TM) were used to quantify cell migration. MDA-MB-231 cells were added at a density of 4 x 10^4 cells/insert in serum-free media (300 μL) in the upper chambers. In the lower chambers, 700 μL of medium supplemented with 10% FBS was added. Test compounds were added at 7 different concentrations (10–0.04 μM) in both the upper and lower chambers. The systems were incubated at 37°C for 6 h. Next, the cells inside the insert were removed with a cotton swab and the cells under the membrane were fixed with methanol and stained with toluidine blue for 5 min. Pictures of the stained membrane were taken under a 10X objective (Optiphase), and the cells were quantified using NIS Elements software (NIKON). Two independent experiments were conducted in duplicate.

On to `COc1cc2c(c(OC)c1OC)-c1ccc(OC)c(=O)cc1[C@@H](NC(C)=O)CC2` [Colchicine, colchicine, reference compound], for which the IC50 worked out at 320 ± 3 nM.
